Binding data for 13 molecules are collected here from patent US20240417469A1.

Amino acid sequences for entries named in this document (tags omitted). A change or cut given only in a name is not applied to a line headed by its entry.
UniProt P07766: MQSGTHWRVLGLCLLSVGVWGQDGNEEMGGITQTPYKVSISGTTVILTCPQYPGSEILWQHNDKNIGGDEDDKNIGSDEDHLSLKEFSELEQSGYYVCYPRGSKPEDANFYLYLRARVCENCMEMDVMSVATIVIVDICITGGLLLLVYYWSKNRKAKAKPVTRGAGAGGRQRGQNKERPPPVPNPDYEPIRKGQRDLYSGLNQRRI
UniProt P04234: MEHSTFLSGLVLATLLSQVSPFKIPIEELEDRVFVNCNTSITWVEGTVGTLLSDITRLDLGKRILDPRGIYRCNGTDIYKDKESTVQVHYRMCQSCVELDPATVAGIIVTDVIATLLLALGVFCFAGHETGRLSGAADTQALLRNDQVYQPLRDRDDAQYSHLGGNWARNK
UniProt P09693: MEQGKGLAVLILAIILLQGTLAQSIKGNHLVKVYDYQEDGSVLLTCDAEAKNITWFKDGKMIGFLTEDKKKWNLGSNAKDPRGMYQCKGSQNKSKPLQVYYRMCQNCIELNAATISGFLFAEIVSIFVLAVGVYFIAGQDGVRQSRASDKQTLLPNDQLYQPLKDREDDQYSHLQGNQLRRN

Numbering of substitutions follows the chain as printed. Results are given in words; binding and its absence hold for the method and conditions named. Some results given as binding are weak or reduced against the parent protein; the word gives no strength.

Test [1] concerns the target T1, human CD3 protein (human) (UniProt P07766+P04234). The experiment in a line: ELISA, plate-coated CD3. A general note: In an ELISA, binding on a coated surface is turned into a signal by an enzyme label.
Test [2] addresses T1, human CD3 protein (human). The test can be described thus: ELISA.
In test [3] the target is T2, human CD3 on cells (human PBMC; Jurkat TCR/CD3 NFAT reporter cells) (human) (UniProt P07766+P04234+P09693). The experiment in a line: FACS on human PBMC, PE anti-human IgG Fc secondary, geometric mean fluorescence.
Test [4] addresses T2, human CD3 on cells (human PBMC; Jurkat TCR/CD3 NFAT reporter cells) (human). The test can be described thus: FACS on human PBMC.

B1: 192A7B9 chimeric mAb (antibody, V domains shown)
VH: QVQLKESGPGLVQPSQTLSLNCTVSGFSLTSYNVHWVRQPPGKGLEWMGRMRYNGDTSYNSALKSRLSISRDTSKNQVFLKMNSLQTDDTGTYYCTRGPRGGYYSALFDYWGQGVMVTVSS
VL: DIQMTQSPSFLSASVGDRVTINCKASQNINRYLNWYQQKLGDAPKVLISIANSLQTGIPSRFSGSGSGTDFTLTISSLQPEDVATYFCLQHNSWYTFGAGTKLELK
Turning to B1, the binding entry in test [1] is given as “binds”.

B2: 153A6B1 chimeric mAb (antibody, V domains shown)
VH: B1 VH with N21T, V34I, M51I, N83S, R100Y, Y103S, Y104R, S105E, A106P
VL: DIKMTQSPSFLSAAVGDRVTINCKTSQNINKYLNWFQQKLGAAPKLLIYTTNNLQTGIPSRFSGSGSGTDFTLTISSLQPEDVATYFCLQHGSGYTFGAGTKLELK
In the case of B2, the binding result in test [1] is reported as “binds”.

B3: Hu155A9B1-8 (antibody, V domains shown)
VH: EVQLQESGPGLVKPSETLSLTCTVSGGSISSYNVHWVRQPPGKGLEWIGRVRYNGDTSYNSALKSRVTISRDTSKNQFSLKLSSVTAADTAVYYCARGPYGGSSEPLFDYWGQGTMVTVSS
VL: DIQMTQSPSSLSASVGDRVTITCKASQNINKYLNWFQQKPGKAPRLLIYTTNNLQTGIPSRFSGSGSGTDFTLTISSLQPEDFATYYCLQHNSGYTFGQGTKLEIK
For B3, the binding entry in test [2], in test [3] and in test [4] was “binds” in each case.

B4: Hu192A7B9-16 (antibody, V domains shown)
VH: B3 VH with I48M, V51M, V67L, A96T, Y100R, S103Y, S104Y, E105S, P106A
VL: B3 VL with K31R, F36Y, R45K, Y49S, T50I, T51A, N53S, G94W
As for B4, the binding entry in test [2] is recorded as “binds”.

B5: Hu192A7B9-22 (antibody, V domains shown)
VH: B3 VH with I48M, V51M, V67L, A96T, Y100R, S103Y, S104Y, E105S, P106A
VL: B1 VL with F10S, N22T, L40P, D42K, V83F, A99Q, L105I
With B5, the binding entry in test [2] is given as “binds”.

B6: Hu192A7B9-21 (antibody, V domains shown)
VH: B3 VH with I48M, V51M, V67L, Y100R, S103Y, S104Y, E105S, P106A
VL: B1 VL with F10S, N22T, L40P, D42K, V83F, A99Q, L105I
For the molecule B6, in test [2], the binding entry is reported as “binds”.

B7: Hu192A7B9-17 (antibody, V domains shown)
VH: EVQLQESGPGLVKPSETLSLTCTVSGFSISSYNVHWVRQPPGKGLEWMGRMRYNGDTSYNSALKSRLTISRDTSKNQVSLKLSSVTAADTAVYYCTRGPRGGYYSALFDYWGQGTMVTVSS
VL: B3 VL with K31R, F36Y, R45K, Y49S, T50I, T51A, N53S, G94W
On to B7, for which the binding entry in test [2] is on record as “binds”.

B8: Hu192A7B9-18 (antibody, V domains shown)
VH: B7 VH with I29L, S30T
VL: B3 VL with K31R, F36Y, R45K, Y49S, T50I, T51A, N53S, G94W
In the case of B8, the binding result in test [2] is on record as “binds”.

B9: Hu192A7B9-23 (antibody, V domains shown)
VH: B7 VH
VL: B1 VL with F10S, N22T, L40P, D42K, V83F, A99Q, L105I
With B9, the binding entry in test [2] was “binds”.

B10: Hu192A7B9-20 (antibody, V domains shown)
VH: B7 VH with F27G, M48I, L67V, V78F, T96A
VL: B1 VL with F10S, N22T, L40P, D42K, V83F, A99Q, L105I
In the case of B10, the binding result in test [2] is on record as “binds”.

B11: Hu192A7B9-19 (antibody, V domains shown)
VH: B7 VH with F27G, V37I, M48I, L67V, R71V, V78F, T96A
VL: B1 VL with F10S, N22T, L40P, D42K, V83F, A99Q, L105I
For B11, in test [2], the binding result is reported as “binds”.

B12: 155A9B1 chimeric mAb (antibody, V domains shown)
VH: B1 VH with N21T, M51V, V78A, T87I, R100Y, Y103S, Y104S, S105E, A106P
VL: B2 VL with A14S, T25A, A42E, K45R, G92N
With B12, the binding result in test [1] is given as “binds”.

B13: Hu192A7B9-24 (antibody, V domains shown)
VH: B7 VH with I29L, S30T
VL: B1 VL with F10S, N22T, L40P, D42K, V83F, A99Q, L105I
Turning to B13, in test [2], the binding entry was “binds”.
